Data from PubChem BioAssay AID1439 (NMMLSC, 2008).
The whole screen tested about 220,000 compounds, of which about 770 (0.35%) were called active. The shares of active, inactive and inconclusive entries below differ from those in the screen. Cut-off read from the data, not from the text of the source: active = binding response below about 49% or above about 150%; inconclusive = no clear call, values can overlap the other calls; inactive = in between.

Sequences of proteins named here, by UniProt entry; tags and fusion partners are left off.
UniProt P09471, whole entry, looked up: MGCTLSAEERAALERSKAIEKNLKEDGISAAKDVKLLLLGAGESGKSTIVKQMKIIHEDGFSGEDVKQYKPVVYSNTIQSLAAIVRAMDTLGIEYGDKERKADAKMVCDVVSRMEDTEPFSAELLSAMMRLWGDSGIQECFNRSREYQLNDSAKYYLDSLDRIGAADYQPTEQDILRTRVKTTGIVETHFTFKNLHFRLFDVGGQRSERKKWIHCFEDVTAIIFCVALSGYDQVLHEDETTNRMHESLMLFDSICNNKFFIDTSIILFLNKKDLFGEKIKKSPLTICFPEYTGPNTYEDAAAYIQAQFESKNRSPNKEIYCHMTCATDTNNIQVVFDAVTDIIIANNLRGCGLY

molecular target: Guanine nucleotide-binding protein G(o) subunit alpha (Homo sapiens) (UniProt P09471); test: RGS7-Galphao binding modulators, primary screen, biochemical, multiplexed bead flow cytometry (AID 1439); conditions: at 10 µM, actives lie on both sides;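 note: fluorescent Galphao held in activated GDP-AlF4 state binding bead-coupled RGS7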

Compound	binding response (% of control)
NNC(=O)CCc1ccc(S(=O)(=O)N2CCOCC2)cc1	inactive: 104%
CCOC(=O)CC(=O)NC(C)(C)CCCCC(C)(C)NC(=O)CC(=O)OCC	inconclusive: 113%
NC(=O)Nc1ccc(C(=O)OCC(=O)Nc2cccc(S(=O)(=O)NC3=NCCCCC3)c2)cc1	inconclusive: 92.3%
Cc1cc(NC(=O)CSc2nc3cc(C(=O)NCCCOC(C)C)ccc3c(=O)n2Cc2ccco2)no1	inactive: 91.4%
O=[N+]([O-])c1ccc(/C=N/n2c(COc3ccccc3)n[nH]c2=S)cc1	inactive: 104%
CSc1ccc(N2C(=O)NC3(CCCCC3)C2=O)cc1	inactive: 94.6%
NC(=O)NOCc1ccc(Cl)cc1Cl	inconclusive: 82.2%
C=CCOc1ccc(CNc2ccc3[nH]c(=O)[nH]c3c2)cc1	inactive: 103%
C(=C\c1ccncc1)/c1ccncc1	inconclusive: 74.4%
CC(C)=CCCC(C)CN1CCC(N2CCC(C(=O)NC(C)C)CC2)CC1 (stereo not given)	inactive: 52.3%
COc1cc(/C=C(\C#N)C(=O)Nc2cccc3ncccc23)ccc1O	inconclusive: 96.1%
O=C(CSc1nc(C2CCCCC2)nc2ccccc12)NCc1ccco1	inconclusive: 103%
CCOP(=O)(Nc1ccc2oc(=O)c3ccccc3c2c1)OCC	inconclusive: 83.9%
CCCn1c(SCC(=O)N2CCCC2)nc2c1c(=O)n(C)c(=O)n2C	active: 188% [activator]
Cn1c2ccccc2c2c(C(=O)N3CCN(C(=O)c4ccco4)CC3)cn(C3CCCCC3)c(=O)c21	inactive: 71.1%
CCC(=O)Oc1ccc(C(=O)Nc2ccccc2C(=O)NCC(C)C)cc1	inconclusive: 97.7%
CC(=O)c1c(C)oc2ccc(N(C(C)=O)S(=O)(=O)c3cccc4cccnc34)cc12	inconclusive: 118%
Cc1cnc(C(=O)OCC(=O)Nc2ccc(C)c(S(=O)(=O)N(C)C)c2)cn1	inconclusive: 103%
O=C(Nc1nnc(CC2=CCCCC2)s1)Nc1ccccc1F	inconclusive: 104%
COc1ccccc1CNC(=O)c1ccc(OC(C)C)cc1	inactive: 94.8%
O=C(NC1CC1)c1sc2cc([N+](=O)[O-])ccc2c1Cl	inactive: 100%
COc1cc(C(=O)NCC(c2cccs2)N(C)C)cc(Cl)c1OC(C)C (stereo not given)	inactive: 120%
CSc1ncccc1C(=O)OCC(=O)c1cccs1	inactive: 101%
COC(=O)C1=C(C(=O)OC)[C@@H]2Nc3ccccc3[C@@]23C[C@@H](C(=O)OC)N=C3N1	inconclusive: 100%
O=S(=O)(NCc1cccnc1)c1ccc2c(c1)OCCO2	inactive: 100%

No new results follow: entries from further up.
Compound	binding response (% of control)
Cn1c2ccccc2c2c(C(=O)N3CCN(C(=O)c4ccco4)CC3)cn(C3CCCCC3)c(=O)c21	inactive: 71.1%
CCC(=O)Oc1ccc(C(=O)Nc2ccccc2C(=O)NCC(C)C)cc1	inconclusive: 97.7%
